Data source: PubChem BioAssay AID1259254 (NCATS, 2017)

Test: 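Finding genes that stop cells copying their DNA twice in one cycle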 (primary screen)
System: human HCT116 colorectal cancer cells
Reagent: single siRNA against human genes
Timing: 3 days
Read-out: 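Nuclei stained with Hoechst and imaged; cell-cycle phase assigned by DNA content; G2 share scaled per plate, non-targeting siRNA 0%, GMNN siRNA 100%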
Scale: G2 robust z-score and G2 cells, % of GMNN control: higher = more G2 cells, more excess DNA replication
Rule for the call: 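Active siRNAs have a G2 robust z of 5 or more median absolute deviations over the median, which in these data means about 38% or higher of GMNN control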
The whole screen tested about 59,000 reagents; below is an unselected part. About 1,550 of all reagents (2.6%) were called active. 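G2 share is only a proxy for re-replication; each gene was hit by three separate siRNAs, and active genes were retested.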 Entries without a mark were called inactive. The numbers tell different reagents against one gene apart. Further read-outs or replicates are left out here. The record does not give: the amount of reagent.

RCHY1 #1
- G2 robust z-score: 0.128
- G2 cells, % of GMNN control: 3.87

RCHY1 #2
- G2 robust z-score: 1.28
- G2 cells, % of GMNN control: 11.9

RCHY1 #3
- G2 robust z-score: -0.59
- G2 cells, % of GMNN control: -1.19

ITGA2B #1
- G2 robust z-score: -0.737
- G2 cells, % of GMNN control: -2.21

ITGA2B #2
- G2 robust z-score: -0.456
- G2 cells, % of GMNN control: -0.243

ITGA2B #3
- G2 robust z-score: 0.986
- G2 cells, % of GMNN control: 9.9

CARM1 #1
- G2 robust z-score: -0.444
- G2 cells, % of GMNN control: -0.159

CARM1 #2
- G2 robust z-score: -0.741
- G2 cells, % of GMNN control: -2.25

CARM1 #3
- G2 robust z-score: 1.08
- G2 cells, % of GMNN control: 10.6

ISL1-DT #1
- G2 robust z-score: 2.6
- G2 cells, % of GMNN control: 21.3

ISL1-DT #2
- G2 robust z-score: 0.311
- G2 cells, % of GMNN control: 5.16

ISL1-DT #3
- G2 robust z-score: 0.486
- G2 cells, % of GMNN control: 6.39

INSL4 #1
- G2 robust z-score: -0.956
- G2 cells, % of GMNN control: -3.76

INSL4 #2
- G2 robust z-score: -0.131
- G2 cells, % of GMNN control: 2.05

INSL4 #3
- G2 robust z-score: 2.29
- G2 cells, % of GMNN control: 19.1

AUP1 #1
- G2 robust z-score: -0.0647
- G2 cells, % of GMNN control: 2.51

AUP1 #2
- G2 robust z-score: -0.856
- G2 cells, % of GMNN control: -3.05

AUP1 #3
- G2 robust z-score: 2.62
- G2 cells, % of GMNN control: 21.4

Just “G2 robust z-score”, for 3 of the entries above:
ITGA2B #3: 0.986
CARM1 #1: -0.444
CARM1 #2: -0.741

Continued:
CKS1BP6 #1
- G2 robust z-score: -0.704
- G2 cells, % of GMNN control: -1.99

CKS1BP6 #2
- G2 robust z-score: 0.0481
- G2 cells, % of GMNN control: 3.31

CKS1BP6 #3
- G2 robust z-score: 1.22
- G2 cells, % of GMNN control: 11.5

NUP107 #1
- G2 robust z-score: -0.332
- G2 cells, % of GMNN control: 0.634

NUP107 #2
- G2 robust z-score: 4.86
- G2 cells, % of GMNN control: 37.2

NUP107 #3
- G2 robust z-score: 0.0625
- G2 cells, % of GMNN control: 3.41

LIPJ #1
- G2 robust z-score: -0.801
- G2 cells, % of GMNN control: -2.67

LIPJ #2
- G2 robust z-score: 5.11 (active)
- G2 cells, % of GMNN control: 38.9

LIPJ #3
- G2 robust z-score: -1.24
- G2 cells, % of GMNN control: -5.77

DCANP1 #1
- G2 robust z-score: 0.232
- G2 cells, % of GMNN control: 4.6

DCANP1 #2
- G2 robust z-score: 2.29
- G2 cells, % of GMNN control: 19.1

DCANP1 #3
- G2 robust z-score: -0.808
- G2 cells, % of GMNN control: -2.72
